Assay results as given in PubChem BioAssay AID493014 (National Center for Advancing Translational Sciences (NCATS), 2011).
The campaign covered roughly 340,000 compounds. About 170 (0.05%) were called active. This list was built around the results that the source calls inconclusive (neither active nor inactive); the mix of calls is not that of the screen. Calls come from the whole dose curve; as a rule, active = well fitted inhibition curve with a large enough effect in the signal ratio, with a control signal flat (not every such curve was filed as active); inconclusive = small, poorly fitted or top-dose-only effect, or effect the other way, or a change in a side signal; inactive = flat fitted curve, though single readings scatter; the % refers to the signal ratio. A potency beside an inconclusive call is a rough fit, not a confirmed value.

Experiment: qHTS Assay to Find Inhibitors of Chronic Active B-Cell Receptor Signaling;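 for activity change, negative = inhibition: plate controls were basal doxycycline-induced cells for no effect and cells given 10 µM MG132 for full effect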
Conditions: ABC-DLBCL IkBa-CBG/CBR reporter, luminescence ratio (green luciferase fused to IkBa over red control in TMD8 lymphoma cells), 4 h; activity change, negative = inhibition: at 46.1 µM (top of the series)
Summary of the method: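 Concentration-response series (up to 46 uM) were applied to TMD8 dual-reporter cells for 4 h at 37C with doxycycline. Green/red ratio, after filter-overlap correction, defined %Activity; red signal alone was normalised to basal cells and zero luminescence.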
Potency is the fitted concentration of half-maximal effect.

SMILES | Potency | activity change, negative = inhibition
C/C(=N\NC(=O)c1ccoc1C)c1cccc2ccccc12 | inconclusive: 20 µM [falling, partial curve, poor fit] | –
Cc1cc(NC(=O)Nc2cccc3ccccc23)no1 | – | inconclusive: -7.7%
NC(=O)CSc1nnnn1-c1ccc2c(c1)OCCO2 | inconclusive: 25.9 µM [falling, single point] | –
Cc1cccc(N(C)S(=O)(=O)c2ccc(-c3cnc(C4CC4)o3)cc2)c1 | inconclusive: 0.891 µM [falling, partial curve, poor fit] | –
CCn1c(=O)c(CCC(=O)NCCN2CCOCC2)c(C)c2c(C)nn(-c3cccc(C)c3)c21 | – | inactive
COc1ccc(OCC(=O)Nc2nccs2)cc1 | inconclusive: 22.4 µM [falling, partial curve] | –
Cn1cc(C(=O)C(=O)NCCc2ccccc2)c2ccccc21 | inconclusive: 35.5 µM [falling, single point] | –
CC(=O)NCCc1ccc(S(=O)(=O)N2CCN(c3nc(-c4ccccc4)c(C)s3)CC2)cc1 | – | inconclusive: 2.32%
Cc1nc(SCC(=O)c2ccc(F)cc2)c([N+](=O)[O-])[nH]1 | – | inconclusive: -13.6%
CCOCCc1nnc(NC(=O)CCS(=O)(=O)c2ccccc2)s1 | inconclusive: 31.6 µM [falling, single point] | –
COc1c(C(=O)Nc2ccc3[nH]c(=O)[nH]c3c2)cc2ccccc2c1Br | – | inconclusive: 5.18%
Cc1ccccc1NC(=S)NCc1ccc2[nH]c3c(c2c1)CCCC3 | inconclusive: 8.2 µM [falling, partial curve] | –
COc1ccc(O)c(-c2[nH]ncc2C(=O)c2ccccc2)c1 | – | inactive
Cc1ccccc1Cn1cc(NC(=O)c2cc(-c3ccco3)on2)cn1 | inconclusive: 4.47 µM [rising, full curve, poor fit] | –
Cn1c(=O)c2c(SCC(=O)Nc3nccs3)nc(C3CC3)nc2n(C)c1=O | – | inconclusive: 8.25%
COc1ccccc1-c1nc(-c2ccc(Br)cc2)no1 | – | inconclusive: -14.8%
CCc1ccc(-c2cnc3ccccc3n2)cc1NC(=O)CNC(=O)c1ccccc1 | – | inconclusive: 9.9%
Cc1ccc(S(=O)(=O)NCCCNS(=O)(=O)c2ccccc2Br)cc1 | – | inconclusive: -0.873%
Nc1ccc(C(=O)OCCc2ccccc2)cc1 | inconclusive: 29.1 µM [falling, single point] | –
CC(C)(C)NC(=O)c1cccc(NC(=O)c2ccc3c(c2)C(=O)N(C(C)(C)C)C3=O)c1 | inconclusive: 5.01 µM [rising, full curve, poor fit] | –
COc1ccc(/C=C/c2nnc(NC(=O)CSc3ccc(C)cc3)s2)cc1 | inconclusive: 15.8 µM [falling, single point] | –

Rewritten as tab-separated lines: two of the compounds above.
SMILES	Potency	activity change, negative = inhibition
COc1ccc(OCC(=O)Nc2nccs2)cc1	inconclusive: 22.4 µM [falling, partial curve]	–
Nc1ccc(C(=O)OCCc2ccccc2)cc1	inconclusive: 29.1 µM [falling, single point]	–

Additional entries.

SMILES | Potency | activity change, negative = inhibition
COc1cc(-c2nc(-c3cccnc3)no2)cc(OC)c1OC | – | inconclusive: 5.96%
Cc1ccccc1C(=O)Nc1nnc(-c2ccc(F)cc2)o1 | inconclusive: 29.1 µM [rising, single point] | –
Cc1cc(N2CCCC2)c(F)cc1/C=C\[N+](=O)[O-] | – | inactive
Cc1noc(NS(=O)(=O)c2ccc(N/C=C/C(=O)c3ccccc3)cc2)c1C | – | inconclusive: 1.89%
NNC(=O)c1cc(Cl)ccc1Cl | inconclusive: 16.4 µM [falling, partial curve, poor fit] | –
CCSc1nnc(NC(=O)C2CC2c2ccccc2)s1 (stereo unspecified) | – | inconclusive: 3.38%
Cc1c(Cl)cccc1NC(=O)c1ccc(-n2ccnc2)nc1 | inconclusive: 15.8 µM [falling, partial curve] | –
C=CS(=O)(=O)c1sc(Cl)c(N2CCOCC2)c1[N+](=O)[O-] | – | inconclusive: -3.54%
O=C(N/N=C/c1ccc(O)cc1)c1csc2ccccc12 | inconclusive: 15.8 µM [falling, partial curve] | –
Cc1ccnc(N2CCCC(C(=O)Nc3nnc(C)s3)C2)n1 (stereo unspecified) | – | inconclusive: -3.17%
O=c1cc(CN2CCN(Cc3ccccc3)CC2)c2ccc(O)c(O)c2o1 | – | inactive
COc1ccc(N(CCC(=O)O)S(=O)(=O)c2ccc(C)c(C)c2)cc1 | – | inconclusive: -1.26%
COc1ccc(NS(=O)(=O)c2cn(C)nc2C)cc1 | – | inconclusive: -3.97%
O=C(NC1=NCCS1)c1ccc(-c2ccc(Cl)cc2)o1 | inconclusive: 25.9 µM [falling, single point] | –
CC1CCCN(c2ccc3nncn3n2)C1 (stereo unspecified) | – | inconclusive: 2.94%
O=C(O)c1c(-c2ccccc2)oc2ccc(O)cc12 | – | inactive
N#Cc1ccc(/C=C/C(=O)c2ccco2)cc1 | – | inactive
COc1ccc(CN2C(=O)CSC2c2ccccn2)cc1 (stereo unspecified) | inconclusive: 12.6 µM [rising, single point] | –
S=C1NC2(CCCC2)N=C1c1ccccc1 | – | inactive
CCOc1ccc(NC(=O)c2sc3nc(C)nc(N4CCOCC4)c3c2C)cc1 | – | inconclusive: 7.42%
Oc1cccc(Oc2ncc(C(F)(F)F)cc2Cl)c1 | – | inconclusive: 2.88%

SMILES | Potency | activity change, negative = inhibition
COc1cc(NC(=S)NC(=O)c2ccc(C(C)(C)C)cc2)ccc1NC(=O)c1cccs1 | – | inactive
CC(=O)Oc1ccc2nc(/C=C/c3ccc(C=O)cc3)oc(=O)c2c1 | inconclusive: 25.1 µM [falling, single point] | –
O=S(=O)(NCCc1ccccc1)c1ccc(F)cc1 | – | inconclusive: 3.71%
Cc1nc2ccccn2c1C(=O)c1ccccc1 | – | inconclusive: -5.62%
COC(=O)c1cc(-c2c(C)oc3cc(OC(C)C)ccc3c2=O)c(C)o1 | – | inactive
O=[N+]([O-])c1ccc(Oc2cccc3cccnc23)c([N+](=O)[O-])c1 | inconclusive: 29.1 µM [falling, single point] | –
O=C(COC(=O)c1n[nH]c2ccccc12)c1ccc(F)c(F)c1 | inconclusive: 25.9 µM [falling, partial curve, poor fit] | –
CC(C)[C@H](NC(=O)OCc1ccccc1)C(=O)OCC(=O)Nc1c(F)cccc1F | – | inconclusive: 0.382%
CCN(CC)S(=O)(=O)c1ccc(Cl)c(NC(=O)COC(=O)c2ccc(O)cc2)c1 | – | inconclusive: 1.51%
C=CCC[C@@H](Cc1ccc(F)cc1)C(=O)OC[C@H](Cc1c[nH]c2ccccc12)NC(=O)[C@H](CC=C)CC(=O)NCCO | – | inconclusive: -6.54%
CSc1cccc(NC(=O)CSc2nc3ccccc3o2)c1 | inconclusive: 20 µM [falling, single point] | –
COc1ccccc1-c1cc(C(F)(F)F)nc(S(=O)(=O)CCCC(=O)N2CCCCC2C)n1 (stereo unspecified) | – | inconclusive: -14%
O=C(Nc1ccccc1)Nc1ccccc1Br | – | inactive
CC1S/C(=N/N=C/c2cccc([N+](=O)[O-])c2)NC1=O (stereo unspecified) | – | inconclusive: 10.6%
O=C(NCCc1ccccc1)C1CCC(CNc2c(N3CCCCC3)c(=O)c2=O)CC1 (stereo unspecified) | – | inconclusive: 0.0197%
COc1ccc2nc(N(Cc3cccnc3)C(=O)CCc3ccccc3)sc2c1 | – | inconclusive: 1.24%
OC(CN1C2=NCCCN2c2ccccc21)c1ccc(Br)cc1 (stereo unspecified) | – | inconclusive: -8.4%
CSc1nc(N2CCN(C)CC2)c2c(c1C#N)CC(C)(C)OC2 | – | inconclusive: -3.66%
CCCCCc1ccc(OCCCC[n+]2ccc(C)cc2)c(CCCCC)c1 | inconclusive: 6.31 µM [falling, single point] | –
COc1ccccc1Nc1nc(-c2cccnc2)cs1 | – | inactive
COc1cc2oc(-c3ccc(O)cc3)cc(=O)c2c(OC)c1O | inconclusive: 4.47 µM [falling, partial curve, poor fit] | –

Part of the list above, with tabs.
SMILES	Potency	activity change, negative = inhibition
CSc1nc(N2CCN(C)CC2)c2c(c1C#N)CC(C)(C)OC2	–	inconclusive: -3.66%
CCCCCc1ccc(OCCCC[n+]2ccc(C)cc2)c(CCCCC)c1	inconclusive: 6.31 µM [falling, single point]	–
COc1ccccc1Nc1nc(-c2cccnc2)cs1	–	inactive

More structures follow:

SMILES | Potency | activity change, negative = inhibition
Cc1oc(-c2ccc3c(c2)OCCO3)cc1C(=O)NCC(=O)O | – | inconclusive: 0.0414%
COc1cc(CNc2ccc3c(c2)CCC3)cc(OC)c1O | – | inconclusive: -4.37%
O=C(O)c1ccc(-n2nc(-c3ccccc3)c3ccccc3c2=O)cc1 | inconclusive: 25.1 µM [falling, single point] | –
CC(/C=N/N1CCN(c2ccccc2)CC1)=C\c1ccco1 | inconclusive: 7.08 µM [rising, partial curve, poor fit] | –
CCOc1ccc(NC(=O)CN2CCCC2c2cccs2)cc1S(=O)(=O)N1CCCCC1 (stereo unspecified) | – | inconclusive: -1.34%
COc1ccc(-c2c(C)nn3c(C)cc(C)nc23)cc1 | inconclusive: 22.4 µM [falling, single point] | –
CCN(CC)S(=O)(=O)c1ccc(C(=O)N2CCCCC2)cc1 | – | inconclusive: 2.22%
Cc1csc(NC(=O)CSc2nnc(-c3ccoc3C)n2C(C)c2ccccc2)n1 (stereo unspecified) | – | inconclusive: -0.449%
Cc1ccc(C(=O)C2=C(O)C(=O)N(Cc3cccnc3)C2c2ccc(Cl)cc2)o1 (stereo unspecified) | – | inactive
CC(=C/C(=O)O)/C(=C\c1ccc(Br)o1)C(=O)O | inconclusive: 1.58 µM [rising, partial curve, poor fit] | –
COc1ccccc1-c1nnc(N)s1 | – | inactive
COCCn1c(C)cc(C(=O)CSc2ccc(NC(C)=O)cc2)c1C | – | inconclusive: -4.27%
N#Cc1ccc(NC(=S)NC(=O)C2CCCCC2)cc1 | – | inconclusive: -0.368%
CCc1c(C)nc2cc(-c3cccc(Br)c3)[nH]n2c1=O | – | inactive
COc1ccc(-n2c(CNC(=O)COc3ccc(Cl)cc3Cl)n[nH]c2=S)cc1 | – | inconclusive: -19.9%
COC(CNC(=O)c1ccc(Cn2c(=S)[nH]c3cc4c(cc3c2=O)OCO4)cc1)OC | – | inactive
O=C(CN1C(=O)NC2(CCc3ccccc32)C1=O)c1ccc(F)c(F)c1 (stereo unspecified) | – | inconclusive: 2.09%
COC(=O)N/N=C(\C)c1ccco1 | – | inactive
